Measured values published in patent publication US20240102021A1.
No constants are given. Whether binding was seen depends on the method and setting. Binding seen in cells or lysates may run through a third protein. Some entries that bind do so weakly or less than the wild type.

Amino acid sequences for entries named in this document (tags omitted).
UniProt P41968: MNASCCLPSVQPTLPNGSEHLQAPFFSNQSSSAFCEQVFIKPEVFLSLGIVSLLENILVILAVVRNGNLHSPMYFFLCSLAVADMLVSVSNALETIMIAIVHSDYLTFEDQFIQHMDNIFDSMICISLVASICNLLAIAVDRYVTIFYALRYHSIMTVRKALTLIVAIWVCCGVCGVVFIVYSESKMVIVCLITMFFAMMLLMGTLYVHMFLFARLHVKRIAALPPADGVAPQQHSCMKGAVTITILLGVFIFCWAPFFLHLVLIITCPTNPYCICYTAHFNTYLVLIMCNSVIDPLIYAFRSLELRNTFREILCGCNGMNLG
UniProt P32245: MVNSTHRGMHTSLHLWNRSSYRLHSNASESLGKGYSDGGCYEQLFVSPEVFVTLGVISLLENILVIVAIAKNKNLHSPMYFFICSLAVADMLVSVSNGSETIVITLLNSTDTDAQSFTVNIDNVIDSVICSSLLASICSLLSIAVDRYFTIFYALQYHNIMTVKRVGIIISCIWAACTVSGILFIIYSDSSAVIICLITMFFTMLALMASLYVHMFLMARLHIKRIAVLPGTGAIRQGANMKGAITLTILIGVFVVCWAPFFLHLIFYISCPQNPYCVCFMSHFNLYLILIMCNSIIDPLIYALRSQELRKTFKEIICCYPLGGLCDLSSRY
UniProt Q9H1Y3: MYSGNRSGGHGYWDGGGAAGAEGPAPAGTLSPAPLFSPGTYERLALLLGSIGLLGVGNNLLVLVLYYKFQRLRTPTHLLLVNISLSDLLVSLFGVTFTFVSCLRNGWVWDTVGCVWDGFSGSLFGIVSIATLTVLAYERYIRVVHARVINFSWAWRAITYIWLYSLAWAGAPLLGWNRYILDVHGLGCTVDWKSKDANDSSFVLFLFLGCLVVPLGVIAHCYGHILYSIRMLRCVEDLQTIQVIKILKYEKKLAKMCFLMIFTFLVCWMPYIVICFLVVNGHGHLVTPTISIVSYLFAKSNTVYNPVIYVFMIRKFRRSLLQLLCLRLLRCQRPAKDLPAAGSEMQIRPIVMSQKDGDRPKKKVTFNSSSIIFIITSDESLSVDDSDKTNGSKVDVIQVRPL

What was measured:
MC3R-nHA [1] = target: MC3R-nHA (UniProt P41968); test: co-immunoprecipitation, GT1-7 mouse hypothalamic neurons
MC4R-nHA [2] = target: MC4R-nHA (UniProt P32245); test: as above
MC3R-nHA [3] = target: MC3R-nHA (UniProt P41968); test: co-immunoprecipitation, GT1-7 cells, IP of OPN3-FLAG, blot anti-HA
MC4R-nHA [4] = target: MC4R-nHA (UniProt P32245); test: as above
MC3R-nHA [5] = target: MC3R-nHA (UniProt P41968); test: co-immunoprecipitation, HEK293 cells, IP anti-FLAG, blot anti-HA
MC4R-nHA [6] = target: MC4R-nHA (UniProt P32245); test: as above

Measured: binding

OPN3-cFLAG (from UniProt Q9H1Y3 1-402) (receptor)
binds: all assays above
